# This is one part of the list.
# B1: SRS6 (Toxoplasma gondii), Q9NH12 (protein)
# chain: MARTGSMQQRRGGFQTTARMLMAVCVSGVLLLSSGPSSANKLTEGQQNQNSGPGAATQEGPTIEGAVAKCVLKTTAAENGSSRAKNTTGLTLSKENLVVSLQCSGEKNAIVPKDQKKVCSAAPNAKVADCKGADTDKQVTLKSLLGTSGDIQWEKTIVSTDNKGEVMTLKIKESELPLFDKAFFVGCEEDKAQTRTSQATECKVNVSVKARPSTVGENNVVTCAYGKDSNPRPLEVEMSADNDTLTIDCGTDGSLKPTKYTEEFCVTDNSQLESCTTKKFSEILPTFLPSWWVSDSQNGSAKLTIPESGFPEEQQQFRLGCVPKKTTQSPQANPSVKTEKEEGAQNTDASTSNCSVIVTVKASNFSSLASSIAPTAAVAGGAAALTGFLVGSF
# Experiments:
# Assay in all cases: glycan array binding signal (z-score within array); higher = stronger binding
# Settings in all cases: glycan notation: IUPAC condensed, linker removed
# [1] = biological target: Neu5Ac(a2-6)Gal(b1-4)GlcNAc(b1-2)Man(a1-3)Man(b1-4)GlcNAc(b1-4)GlcNAc
# Procedure, shortened: (§1)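 Glycan array data came from 3228 arrays in the Consortium for Functional Glycomics database, and only arrays with an available protein sequence were kept. Glycan names were put into IUPAC-condensed notation, and columns mapping to the same glycan were averaged. The binding signal is a within-array Z-score, averaged across arrays of one protein sequence run at different concentrations or buffers and across linkers. A negative Z-score can be read as non-binding.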
# [2] = biological target: Neu5Ac(a2-6)Gal(b1-4)GlcNAc(b1-2)Man(a1-3)[Gal(b1-4)GlcNAc(b1-2)Man(a1-6)]Man(b1-4)GlcNAc(b1-4)GlcNAc
# Procedure, shortened: as §1
# [3] = biological target: Neu5Ac(a2-6)Gal(b1-4)GlcNAc(b1-2)Man(a1-3)[GlcNAc(b1-2)Man(a1-6)]Man(b1-4)GlcNAc(b1-4)GlcNAc
# Procedure, shortened: as §1
# [4] = biological target: Neu5Ac(a2-6)Gal(b1-4)GlcNAc(b1-2)Man(a1-3)[GlcNAc(b1-2)Man(b1-4)GlcNAc(b1-2)Man(a1-6)]Man(b1-4)GlcNAc(b1-4)GlcNAc
# Procedure, shortened: as §1
# [5] = biological target: Neu5Ac(a2-6)Gal(b1-4)GlcNAc(b1-2)Man(a1-3)[Man(a1-6)]Man(b1-4)GlcNAc(b1-4)GlcNAc
# Procedure, shortened: as §1
# [6] = biological target: Neu5Ac(a2-6)Gal(b1-4)GlcNAc(b1-2)Man(a1-3)[Neu5Ac(a2-6)Gal(b1-4)GlcNAc(b1-2)Man(a1-6)]Man(b1-4)GlcNAc(b1-4)GlcNAc
# Procedure, shortened: as §1
# [7] = biological target: Neu5Ac(a2-6)Gal(b1-4)GlcNAc(b1-2)Man(a1-6)Man(b1-4)GlcNAc(b1-4)GlcNAc
# Procedure, shortened: as §1
# [8] = biological target: Neu5Ac(a2-6)Gal(b1-4)GlcNAc(b1-2)Man(a1-6)[Gal(b1-4)GlcNAc(b1-2)Man(a1-3)]Man(b1-4)GlcNAc(b1-4)GlcNAc
# Procedure, shortened: as §1
# [9] = biological target: Neu5Ac(a2-6)Gal(b1-4)GlcNAc(b1-2)Man(a1-6)[GlcNAc(b1-2)Man(a1-3)]Man(b1-4)GlcNAc(b1-4)GlcNAc
# Procedure, shortened: as §1
# [10] = biological target: Neu5Ac(a2-6)Gal(b1-4)GlcNAc(b1-2)Man(a1-6)[Man(a1-3)]Man(b1-4)GlcNAc(b1-4)GlcNAc
# Procedure, shortened: as §1
# [11] = biological target: Neu5Ac(a2-6)Gal(b1-4)GlcNAc(b1-3)Gal(b1-3)GlcNAc
# Procedure, shortened: as §1
# [12] = biological target: Neu5Ac(a2-6)Gal(b1-4)GlcNAc(b1-3)Gal(b1-4)GlcNAc
# Procedure, shortened: as §1
# [13] = biological target: Neu5Ac(a2-6)Gal(b1-4)GlcNAc(b1-3)Gal(b1-4)GlcNAc(b1-3)Gal(b1-4)GlcNAc
# Procedure, shortened: as §1
# [14] = biological target: Neu5Ac(a2-6)Gal(b1-4)GlcNAc(b1-3)Gal(b1-4)[Fuc(a1-3)]GlcNAc(b1-3)Gal(b1-4)[Fuc(a1-3)]GlcNAc
# Procedure, shortened: as §1
# [15] = biological target: Neu5Ac(a2-6)Gal(b1-4)GlcNAc(b1-3)GalNAc
# Procedure, shortened: as §1
# [16] = biological target: Neu5Ac(a2-6)Gal(b1-4)GlcNAc6S
# Procedure, shortened: as §1
# Neu5Ac(a2-6)GalNAc = biological target: Neu5Ac(a2-6)GalNAc
# Procedure, shortened: as §1
# [17] = biological target: Neu5Ac(a2-6)GalNAc(b1-4)GlcNAc
# Procedure, shortened: as §1
# [18] = biological target: Neu5Ac(a2-6)GlcNAc(b1-4)GlcNAc
# Procedure, shortened: as §1
# [19] = biological target: Neu5Ac(a2-6)GlcNAc(b1-4)GlcNAc(b1-4)GlcNAc
# Procedure, shortened: as §1
# Neu5Ac(a2-8)Neu5Ac = biological target: Neu5Ac(a2-8)Neu5Ac
# Procedure, shortened: as §1
# [20] = biological target: Neu5Ac(a2-8)Neu5Ac(a2-3)Gal(b1-4)Glc
# Procedure, shortened: as §1
# [21] = biological target: Neu5Ac(a2-8)Neu5Ac(a2-3)[GalNAc(b1-4)]Gal(b1-4)Glc
# Procedure, shortened: as §1
# [22] = biological target: Neu5Ac(a2-8)Neu5Ac(a2-8)Neu5Ac
# Procedure, shortened: as §1
# [23] = biological target: Neu5Ac(a2-8)Neu5Ac(a2-8)Neu5Ac(a2-3)Gal(b1-4)Glc
# Procedure, shortened: as §1
# [24] = biological target: Neu5Ac(a2-8)Neu5Ac(a2-8)Neu5Ac(a2-3)[GalNAc(b1-4)]Gal(b1-4)Glc
# Procedure, shortened: as §1
# [25] = biological target: Neu5Ac(a2-8)Neu5Ac(a2-8)Neu5Ac(a2-8)Neu5Ac(a2-3)[GalNAc(b1-4)]Gal(b1-4)Glc
# Procedure, shortened: as §1
# [26] = biological target: Neu5Ac(b2-6)Gal(b1-4)GlcNAc
# Procedure, shortened: as §1
# Neu5Ac(b2-6)GalNAc = biological target: Neu5Ac(b2-6)GalNAc
# Procedure, shortened: as §1
# [27] = biological target: Neu5Ac9Ac(a2-3)Gal(b1-3)GlcNAc
# Procedure, shortened: as §1
# [28] = biological target: Neu5Ac9Ac(a2-3)Gal(b1-4)GlcNAc
# Procedure, shortened: as §1
# [29] = biological target: Neu5Ac9Ac(a2-6)Gal(b1-4)GlcNAc
# Procedure, shortened: as §1
# [30] = biological target: Neu5Gc(a2-3)Gal(b1-3)GlcNAc
# Procedure, shortened: as §1
# [31] = biological target: Neu5Gc(a2-3)Gal(b1-3)[Fuc(a1-4)]GlcNAc
# Procedure, shortened: as §1
# Neu5Gc(a2-3)Gal(b1-4)Glc = biological target: Neu5Gc(a2-3)Gal(b1-4)Glc
# Procedure, shortened: as §1
# [32] = biological target: Neu5Gc(a2-3)Gal(b1-4)GlcNAc
# Procedure, shortened: as §1
# [33] = biological target: Neu5Gc(a2-3)Gal(b1-4)[Fuc(a1-3)]GlcNAc
# Procedure, shortened: as §1
# [34] = biological target: Neu5Gc(a2-6)Gal(b1-4)GlcNAc
# Procedure, shortened: as §1
# Neu5Gc(a2-6)GalNAc = biological target: Neu5Gc(a2-6)GalNAc
# Procedure, shortened: as §1
# [35] = biological target: Neu5Gc(b2-6)Gal(b1-4)GlcNAc
# Procedure, shortened: as §1
binder,measurement,setting,value
B1,glycan array binding signal (z-score),[1],1.02
same,glycan array binding signal (z-score),[2],0.579
same,glycan array binding signal (z-score),[3],-0.395
same,glycan array binding signal (z-score),[4],0.178
same,glycan array binding signal (z-score),[5],0.862
same,glycan array binding signal (z-score),[6],0.976
same,glycan array binding signal (z-score),[7],1.02
same,glycan array binding signal (z-score),[8],-0.684
same,glycan array binding signal (z-score),[9],-0.168
same,glycan array binding signal (z-score),[10],0.253
same,glycan array binding signal (z-score),[11],-0.336
same,glycan array binding signal (z-score),[12],-0.533
same,glycan array binding signal (z-score),[13],-0.211
same,glycan array binding signal (z-score),[14],-0.419
same,glycan array binding signal (z-score),[15],-0.452
same,glycan array binding signal (z-score),[16],-0.59
same,glycan array binding signal (z-score),Neu5Ac(a2-6)GalNAc,-0.745
same,glycan array binding signal (z-score),[17],-1.52
same,glycan array binding signal (z-score),[18],-0.656
same,glycan array binding signal (z-score),[19],0.094
same,glycan array binding signal (z-score),Neu5Ac(a2-8)Neu5Ac,-0.128
same,glycan array binding signal (z-score),[20],-0.498
same,glycan array binding signal (z-score),[21],0.871
same,glycan array binding signal (z-score),[22],-0.225
same,glycan array binding signal (z-score),[23],0.26
same,glycan array binding signal (z-score),[24],0.338
same,glycan array binding signal (z-score),[25],-0.85
same,glycan array binding signal (z-score),[26],0.323
same,glycan array binding signal (z-score),Neu5Ac(b2-6)GalNAc,0.117
same,glycan array binding signal (z-score),[27],0.057
same,glycan array binding signal (z-score),[28],-0.312
same,glycan array binding signal (z-score),[29],-0.64
same,glycan array binding signal (z-score),[30],-1.15
same,glycan array binding signal (z-score),[31],-0.377
same,glycan array binding signal (z-score),Neu5Gc(a2-3)Gal(b1-4)Glc,-0.529
same,glycan array binding signal (z-score),[32],0.659
same,glycan array binding signal (z-score),[33],0.103
same,glycan array binding signal (z-score),[34],0.342
same,glycan array binding signal (z-score),Neu5Gc(a2-6)GalNAc,-0.546
same,glycan array binding signal (z-score),[35],0.403

# Some of the entries above in a different format:
binder	measurement	setting	value
B1	glycan array binding signal (z-score)	[34]	0.342
same	glycan array binding signal (z-score)	Neu5Gc(a2-6)GalNAc	-0.546
